Earlier results, collected in US10821164B2, “Peptides for inducing Chagas disease responses” (SAINT LOUIS UNIVERSITY, priority 2015, dated 2020).
Some of these results come from one statement about several compounds together.

Settings: people treated for Chagas disease; cited from earlier work

O=C(Cn1ccnc1[N+](=O)[O-])NCc1ccccc1 [benznidazole]
temporary side effects (skin disorders, brain toxicity, digestive system irritation), share of people: up to 40%
